From patent publication US20070253958A1 (Bristol-Myers Squibb, published 2007)
These are yes or no findings as the source states them, for the method shown. Some results given as binding are weak or reduced against the parent protein; the word gives no strength.

Sequences of proteins named here, by UniProt entry; tags and fusion partners are left off. Residues count along the entry.
UniProt P12318, residues 34-317: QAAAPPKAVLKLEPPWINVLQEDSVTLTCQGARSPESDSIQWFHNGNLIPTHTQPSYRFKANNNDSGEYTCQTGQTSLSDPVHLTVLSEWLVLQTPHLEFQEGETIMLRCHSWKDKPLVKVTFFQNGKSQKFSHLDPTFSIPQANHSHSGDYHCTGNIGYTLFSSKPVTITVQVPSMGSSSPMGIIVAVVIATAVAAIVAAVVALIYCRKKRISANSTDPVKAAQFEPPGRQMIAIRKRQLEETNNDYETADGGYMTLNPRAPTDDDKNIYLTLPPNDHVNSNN

Experiments:
[1] = target: FcγRIIa (CD32) on THP-1 cells and human monocytes, allotype not stated (human) (UniProt P12318); experiment: flow cytometry on THP-1 cells (FcγRI and FcγRIIa), FITC goat F(ab')2 anti-human kappa, Binding (%)
[2] = target: FcγRIIa (CD32) on THP-1 cells and human monocytes, allotype not stated (human) (UniProt P12318); experiment: flow cytometry on THP-1 cells

B1: MDE-8 F(ab')2 fragments (protein)
VH: QVHLVESGGGVVQPGRSLRLSCAASGFTFSSYGMHWVRQAPGKGLEWVAVIWYDGSNYYYTDSVKGRFTISRDNSKNTLYLQMNSLRAEDTAVYYCARDLGAAASDYWGQGTLVTVSS
VL: AIQLTQSPSSLSASVGDRVTITCRASQGINSALAWYQQKPGKAPKLLIYDASSLESGVPSRFSGSGSGTDFTLTISSLQPEDFATYYCQQFNSYPHTFGQGTKLEIK
With B1 the binding [1] was “binds” and the binding [2] was “binds”.
